Reference: the supplement of paper PMC10849652
The list shows a part of the results.

Chains of the proteins cited; added tags and fusions are not shown. Lines headed by an entry give the natural chain unless they say otherwise; changes in a name come on top.
UniProt Q8TEB9: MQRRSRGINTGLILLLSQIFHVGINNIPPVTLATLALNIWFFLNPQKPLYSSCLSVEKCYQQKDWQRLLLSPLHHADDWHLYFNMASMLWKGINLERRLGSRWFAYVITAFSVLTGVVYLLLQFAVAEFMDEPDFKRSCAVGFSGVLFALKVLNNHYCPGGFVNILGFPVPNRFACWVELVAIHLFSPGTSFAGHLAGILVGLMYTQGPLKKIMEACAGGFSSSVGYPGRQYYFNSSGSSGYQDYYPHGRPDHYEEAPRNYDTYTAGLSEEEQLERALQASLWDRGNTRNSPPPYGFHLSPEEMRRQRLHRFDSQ
UniProt Q96GF1: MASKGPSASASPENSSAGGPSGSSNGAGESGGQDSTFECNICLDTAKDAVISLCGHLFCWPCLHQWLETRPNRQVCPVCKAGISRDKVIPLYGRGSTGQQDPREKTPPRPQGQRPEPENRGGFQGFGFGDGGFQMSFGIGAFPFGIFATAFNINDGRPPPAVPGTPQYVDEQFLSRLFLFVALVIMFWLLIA
UniProt Q96K19: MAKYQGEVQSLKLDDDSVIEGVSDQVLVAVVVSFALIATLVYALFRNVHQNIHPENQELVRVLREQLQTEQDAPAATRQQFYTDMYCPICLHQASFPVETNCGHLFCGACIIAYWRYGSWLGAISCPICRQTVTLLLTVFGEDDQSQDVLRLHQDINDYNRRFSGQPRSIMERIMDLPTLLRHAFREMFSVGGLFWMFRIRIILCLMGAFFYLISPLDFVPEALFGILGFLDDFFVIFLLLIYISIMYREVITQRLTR
UniProt Q5VTR2, whole entry, looked up: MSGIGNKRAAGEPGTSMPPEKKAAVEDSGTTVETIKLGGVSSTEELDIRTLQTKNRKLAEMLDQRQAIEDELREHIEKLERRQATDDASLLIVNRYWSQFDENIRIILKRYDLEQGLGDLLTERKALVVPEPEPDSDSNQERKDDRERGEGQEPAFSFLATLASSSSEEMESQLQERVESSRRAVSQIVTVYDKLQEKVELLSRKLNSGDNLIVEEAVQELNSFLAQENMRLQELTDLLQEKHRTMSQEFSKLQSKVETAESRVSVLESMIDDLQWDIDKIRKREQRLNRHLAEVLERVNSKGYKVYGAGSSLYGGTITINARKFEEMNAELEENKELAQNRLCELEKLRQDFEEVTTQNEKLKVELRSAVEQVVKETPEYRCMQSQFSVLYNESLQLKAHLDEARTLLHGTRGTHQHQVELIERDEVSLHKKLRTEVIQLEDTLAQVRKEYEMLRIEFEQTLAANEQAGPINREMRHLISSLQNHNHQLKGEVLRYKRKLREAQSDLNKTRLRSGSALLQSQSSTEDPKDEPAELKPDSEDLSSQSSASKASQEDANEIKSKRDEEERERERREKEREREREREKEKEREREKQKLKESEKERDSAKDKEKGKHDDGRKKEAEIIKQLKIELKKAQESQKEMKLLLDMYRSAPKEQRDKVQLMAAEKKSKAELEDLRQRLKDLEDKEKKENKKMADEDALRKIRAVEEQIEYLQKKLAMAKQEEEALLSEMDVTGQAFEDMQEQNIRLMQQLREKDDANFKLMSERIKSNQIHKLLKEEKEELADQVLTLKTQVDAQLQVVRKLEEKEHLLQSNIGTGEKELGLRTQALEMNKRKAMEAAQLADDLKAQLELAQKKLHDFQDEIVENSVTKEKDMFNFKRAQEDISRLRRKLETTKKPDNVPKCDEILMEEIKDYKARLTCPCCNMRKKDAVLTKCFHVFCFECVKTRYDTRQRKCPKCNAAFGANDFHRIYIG
UniProt Q04206, whole entry, looked up: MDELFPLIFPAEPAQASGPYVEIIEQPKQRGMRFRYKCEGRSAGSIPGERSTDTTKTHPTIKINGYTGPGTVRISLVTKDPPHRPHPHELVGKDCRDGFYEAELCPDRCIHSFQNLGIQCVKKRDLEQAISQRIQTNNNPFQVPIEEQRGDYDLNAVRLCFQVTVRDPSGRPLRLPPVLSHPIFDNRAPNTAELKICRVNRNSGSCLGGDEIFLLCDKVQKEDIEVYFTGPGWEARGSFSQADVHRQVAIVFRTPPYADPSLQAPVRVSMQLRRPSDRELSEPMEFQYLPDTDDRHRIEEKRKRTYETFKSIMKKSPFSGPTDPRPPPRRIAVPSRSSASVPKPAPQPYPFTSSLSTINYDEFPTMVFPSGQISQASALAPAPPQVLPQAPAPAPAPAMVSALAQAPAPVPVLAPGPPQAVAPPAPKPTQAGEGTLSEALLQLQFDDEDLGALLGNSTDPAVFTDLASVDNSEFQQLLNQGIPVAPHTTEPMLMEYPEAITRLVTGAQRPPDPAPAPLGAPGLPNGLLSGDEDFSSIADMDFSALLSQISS
UniProt Q4ADV7: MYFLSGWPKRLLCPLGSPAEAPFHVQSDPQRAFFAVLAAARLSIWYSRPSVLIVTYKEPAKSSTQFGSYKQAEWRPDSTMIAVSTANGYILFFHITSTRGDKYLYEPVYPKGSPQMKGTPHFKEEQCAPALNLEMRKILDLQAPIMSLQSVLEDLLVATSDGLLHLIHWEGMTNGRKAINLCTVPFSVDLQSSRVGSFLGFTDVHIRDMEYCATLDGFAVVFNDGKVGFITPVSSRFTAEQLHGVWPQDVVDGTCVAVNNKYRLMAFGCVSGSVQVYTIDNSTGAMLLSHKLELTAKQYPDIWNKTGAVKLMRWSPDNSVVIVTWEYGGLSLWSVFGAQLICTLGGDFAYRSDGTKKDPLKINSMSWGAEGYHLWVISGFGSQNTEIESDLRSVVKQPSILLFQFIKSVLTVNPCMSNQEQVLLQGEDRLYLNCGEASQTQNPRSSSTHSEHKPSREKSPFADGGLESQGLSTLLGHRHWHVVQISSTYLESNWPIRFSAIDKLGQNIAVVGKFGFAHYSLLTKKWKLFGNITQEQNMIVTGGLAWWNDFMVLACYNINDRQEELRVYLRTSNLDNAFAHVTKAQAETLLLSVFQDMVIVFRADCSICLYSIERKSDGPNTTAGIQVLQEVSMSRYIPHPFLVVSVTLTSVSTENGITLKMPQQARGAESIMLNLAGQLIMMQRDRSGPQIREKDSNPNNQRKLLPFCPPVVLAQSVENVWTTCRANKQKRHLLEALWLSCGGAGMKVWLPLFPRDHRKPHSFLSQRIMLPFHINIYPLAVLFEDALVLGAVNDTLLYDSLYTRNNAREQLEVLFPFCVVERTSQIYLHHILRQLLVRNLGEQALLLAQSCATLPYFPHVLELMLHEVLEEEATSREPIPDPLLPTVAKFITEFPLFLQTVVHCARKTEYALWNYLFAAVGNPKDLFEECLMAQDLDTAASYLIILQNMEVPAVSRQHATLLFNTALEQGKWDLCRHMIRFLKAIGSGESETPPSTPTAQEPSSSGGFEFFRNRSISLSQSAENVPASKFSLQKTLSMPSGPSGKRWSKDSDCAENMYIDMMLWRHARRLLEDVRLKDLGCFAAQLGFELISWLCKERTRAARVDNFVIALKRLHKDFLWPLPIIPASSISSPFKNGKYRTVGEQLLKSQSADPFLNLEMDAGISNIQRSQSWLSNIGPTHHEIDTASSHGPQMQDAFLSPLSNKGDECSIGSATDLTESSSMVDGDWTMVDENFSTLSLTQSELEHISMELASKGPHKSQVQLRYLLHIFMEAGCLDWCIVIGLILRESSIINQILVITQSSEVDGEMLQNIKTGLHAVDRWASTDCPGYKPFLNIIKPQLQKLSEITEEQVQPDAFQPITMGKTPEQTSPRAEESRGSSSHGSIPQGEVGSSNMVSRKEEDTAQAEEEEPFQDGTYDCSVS
UniProt Q99496: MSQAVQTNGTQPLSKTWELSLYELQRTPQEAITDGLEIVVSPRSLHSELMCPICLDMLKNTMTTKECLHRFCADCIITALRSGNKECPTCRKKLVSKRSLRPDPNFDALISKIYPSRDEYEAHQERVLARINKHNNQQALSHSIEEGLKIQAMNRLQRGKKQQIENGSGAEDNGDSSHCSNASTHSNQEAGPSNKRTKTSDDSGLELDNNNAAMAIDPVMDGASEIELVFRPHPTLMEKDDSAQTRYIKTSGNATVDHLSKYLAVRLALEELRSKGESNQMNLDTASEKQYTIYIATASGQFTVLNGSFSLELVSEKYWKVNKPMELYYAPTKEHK
UniProt P34096: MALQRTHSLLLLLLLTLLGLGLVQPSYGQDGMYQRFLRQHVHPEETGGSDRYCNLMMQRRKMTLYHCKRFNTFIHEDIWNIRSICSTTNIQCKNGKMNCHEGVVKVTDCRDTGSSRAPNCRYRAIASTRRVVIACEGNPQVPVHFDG
UniProt Q8WZ73: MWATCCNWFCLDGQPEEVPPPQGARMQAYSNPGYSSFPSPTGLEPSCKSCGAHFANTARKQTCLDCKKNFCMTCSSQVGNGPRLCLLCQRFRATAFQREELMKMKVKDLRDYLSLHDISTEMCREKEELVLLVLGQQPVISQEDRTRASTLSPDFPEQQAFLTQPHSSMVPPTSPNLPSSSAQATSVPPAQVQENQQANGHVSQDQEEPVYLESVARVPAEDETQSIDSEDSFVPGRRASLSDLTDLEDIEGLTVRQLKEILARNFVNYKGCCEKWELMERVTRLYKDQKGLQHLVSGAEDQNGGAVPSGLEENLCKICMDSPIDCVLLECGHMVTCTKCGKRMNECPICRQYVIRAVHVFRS
UniProt Q9P2R6: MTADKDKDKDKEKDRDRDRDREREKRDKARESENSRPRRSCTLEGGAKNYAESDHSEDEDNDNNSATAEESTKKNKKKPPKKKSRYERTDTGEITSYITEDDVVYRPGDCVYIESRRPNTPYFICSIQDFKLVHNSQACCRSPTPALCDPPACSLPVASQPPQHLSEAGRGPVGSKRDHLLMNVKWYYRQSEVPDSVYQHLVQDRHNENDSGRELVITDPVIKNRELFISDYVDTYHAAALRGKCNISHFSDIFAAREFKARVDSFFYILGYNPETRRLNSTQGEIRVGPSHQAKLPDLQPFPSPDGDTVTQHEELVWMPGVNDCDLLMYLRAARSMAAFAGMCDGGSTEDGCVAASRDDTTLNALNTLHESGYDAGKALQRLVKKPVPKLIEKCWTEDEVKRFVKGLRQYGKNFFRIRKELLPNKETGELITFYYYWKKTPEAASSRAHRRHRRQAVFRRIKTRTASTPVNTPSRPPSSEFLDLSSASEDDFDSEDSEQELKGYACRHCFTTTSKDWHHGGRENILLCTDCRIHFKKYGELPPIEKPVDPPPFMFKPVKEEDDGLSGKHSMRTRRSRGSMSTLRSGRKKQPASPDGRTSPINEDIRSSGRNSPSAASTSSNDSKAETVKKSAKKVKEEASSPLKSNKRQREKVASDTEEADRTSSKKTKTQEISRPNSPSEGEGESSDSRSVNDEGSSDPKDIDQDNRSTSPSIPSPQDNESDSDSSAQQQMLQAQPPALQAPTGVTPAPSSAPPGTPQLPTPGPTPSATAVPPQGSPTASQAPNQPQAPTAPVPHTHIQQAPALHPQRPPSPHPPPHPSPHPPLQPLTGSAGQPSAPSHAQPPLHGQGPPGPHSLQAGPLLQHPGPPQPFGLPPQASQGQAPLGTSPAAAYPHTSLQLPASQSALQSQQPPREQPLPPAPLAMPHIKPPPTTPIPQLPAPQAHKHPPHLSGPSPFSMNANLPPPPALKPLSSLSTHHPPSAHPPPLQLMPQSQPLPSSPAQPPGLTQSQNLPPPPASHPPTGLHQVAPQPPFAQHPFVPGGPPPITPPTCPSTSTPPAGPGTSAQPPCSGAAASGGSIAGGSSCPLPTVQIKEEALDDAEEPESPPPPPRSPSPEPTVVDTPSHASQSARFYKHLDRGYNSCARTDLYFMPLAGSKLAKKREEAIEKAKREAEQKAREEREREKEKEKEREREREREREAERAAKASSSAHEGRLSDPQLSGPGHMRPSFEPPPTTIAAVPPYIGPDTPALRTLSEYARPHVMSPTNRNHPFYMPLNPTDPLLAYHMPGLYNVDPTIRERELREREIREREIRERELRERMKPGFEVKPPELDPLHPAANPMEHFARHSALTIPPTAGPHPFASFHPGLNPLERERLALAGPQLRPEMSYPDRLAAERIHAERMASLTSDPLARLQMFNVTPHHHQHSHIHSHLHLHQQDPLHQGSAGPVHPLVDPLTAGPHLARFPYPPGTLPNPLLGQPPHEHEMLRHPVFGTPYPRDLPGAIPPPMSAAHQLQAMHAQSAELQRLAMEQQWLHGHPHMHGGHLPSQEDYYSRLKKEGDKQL
UniProt Q96I51, whole entry, looked up: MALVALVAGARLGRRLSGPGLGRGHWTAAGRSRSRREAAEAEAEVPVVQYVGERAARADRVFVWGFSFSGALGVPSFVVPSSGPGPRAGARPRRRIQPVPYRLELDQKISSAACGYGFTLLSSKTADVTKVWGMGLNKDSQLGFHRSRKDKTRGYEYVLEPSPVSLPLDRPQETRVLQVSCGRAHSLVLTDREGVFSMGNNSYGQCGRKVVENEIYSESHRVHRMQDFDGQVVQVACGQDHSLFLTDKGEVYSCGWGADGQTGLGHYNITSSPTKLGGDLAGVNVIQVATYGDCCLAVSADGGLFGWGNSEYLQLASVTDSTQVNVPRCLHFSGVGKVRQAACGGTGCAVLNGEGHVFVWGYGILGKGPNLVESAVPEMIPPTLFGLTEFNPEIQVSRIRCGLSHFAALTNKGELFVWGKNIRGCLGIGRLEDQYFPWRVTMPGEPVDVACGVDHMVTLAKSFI

Experiments:
Test in all cases: log2 fold change, soluble protein after heating vs DMSO (PISA); higher = thermal stabilisation; K562 cells, 10 uM, 30 min; active = over 0.2 and 3.5 SD of the protein, either way, in both replicates (recomputed)
bafetinib = compound: Cc1ccc(NC(=O)c2ccc(CN3CC[C@H](N(C)C)C3)c(C(F)(F)F)c2)cc1Nc1nccc(-c2cncnc2)n1 [bafetinib]
In short: (§1)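 K562 cells at 2×10^6 cells/mL were exposed to 10 μM compound for 30 min, then aliquots were heated for 3 min across 48°C-58°C, pooled, and extracted in PBS containing 0.5% NP-40 at 4°C. The supernatant after 21,000xg for 90 min was taken as soluble protein and measured by TMTpro 16plex LC-MS/MS with channel sums equalised. Thermal stability is reported relative to control samples, with values from duplicates. Fold changes are given on a log2 scale.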

[1] = compound: Cc1cccc(CC(=O)N2CCc3c2ccc(-c2cn(C)c4ncnc(N)c24)c3F)n1
In short: as §1

nilotinib = compound: Cc1cn(-c2cc(NC(=O)c3ccc(C)c(Nc4nccc(-c5cccnc5)n4)c3)cc(C(F)(F)F)c2)cn1 [nilotinib]
In short: as §1

[2] = compound: Cc1nc(Nc2n[nH]c3c2CN(C(=O)N[C@H](CN(C)C)c2ccccc2)C3(C)C)c2sccc2n1
In short: as §1

dasatinib = compound: Cc1nc(Nc2ncc(C(=O)Nc3c(C)cccc3Cl)s2)cc(N2CCN(CCO)CC2)n1 [dasatinib]
In short: as §1

[3] = compound: Cc1ncc(-c2ccnc(Nc3ccc(S(C)(=O)=O)cc3)n2)n1C(C)C
In short: as §1

[4] = compound: Cn1cc(-c2ccc3nnc(C(F)(F)c4ccc5ncccc5c4)n3n2)cn1
In short: as §1

tipifarnib = compound: Cn1cncc1[C@@](N)(c1ccc(Cl)cc1)c1ccc2c(c1)c(-c1cccc(Cl)c1)cc(=O)n2C [tipifarnib]
In short: as §1

[5] = compound: NCC(=O)Nc1ccc(-n2nc(C(F)(F)F)cc2-c2ccc3c(ccc4ccccc43)c2)cc1
In short: as §1

vorinostat = compound: O=C(CCCCCCC(=O)Nc1ccccc1)NO [vorinostat]
In short: as §1

citarinostat = compound: O=C(CCCCCCNC(=O)c1cnc(N(c2ccccc2)c2ccccc2Cl)nc1)NO [citarinostat]
In short: as §1

[6] = compound: O=C1NC(=O)C(c2cnc3ccccn23)=C1c1cn2c3c(cc(F)cc13)CN(C(=O)N1CCCCC1)CC2
In short: as §1

[7] = compound: c1cc(OCCN2CCCCC2)cc(-c2n[nH]c3ccc(-c4nnc[nH]4)cc23)c1
In short: as §1

[8] = compound: Cn1cc(-c2ccc3c(c2)CCN3C(=O)Cc2cccc(C(F)(F)F)c2)c2c(N)ncnc21
In short: as §1

mubritinib = compound: FC(F)(F)c1ccc(/C=C/c2nc(COc3ccc(CCCCn4ccnn4)cc3)co2)cc1 [mubritinib]
In short: as §1

[9] = compound: NC(=O)Nc1cc(-c2cccc(F)c2)sc1C(=O)N[C@H]1CCCNC1
In short: as §1

[10] = compound: NC1(c2ccc(-c3nc4ccn5c(=O)[nH]nc5c4cc3-c3ccccc3)cc2)CCC1
In short: as §1

entinostat = compound: Nc1ccccc1NC(=O)c1ccc(CNC(=O)OCc2cccnc2)cc1 [entinostat]
In short: as §1

silmitasertib = compound: O=C(O)c1ccc2c(c1)nc(Nc1cccc(Cl)c1)c1ccncc12 [silmitasertib]
In short: as §1

[11] = compound: NC(=O)c1cnc(N[C@@H]2CCCC[C@@H]2N)nc1Nc1cccc(-n2nccn2)c1
In short: as §1

Target | log2 fold change (bafetinib) | log2 fold change [1] | log2 fold change (nilotinib) | log2 fold change [2] | log2 fold change (dasatinib) | log2 fold change [3] | log2 fold change [4] | log2 fold change (tipifarnib) | log2 fold change [5] | log2 fold change (vorinostat) | log2 fold change (citarinostat) | log2 fold change [6] | log2 fold change [7] | log2 fold change [8] | log2 fold change (mubritinib) | log2 fold change [9] | log2 fold change [10] | log2 fold change (entinostat) | log2 fold change (silmitasertib) | log2 fold change [11]
RNF24 isoform 2 (UniProt Q9Y225) | inactive: -0.114 | inactive: -0.102 | inactive: 0.134 | inactive: 0.022 | inactive: 0.269 | inactive: 0.179 | inactive: -0.044 | inactive: 0.318 | inactive: 0.177 | inactive: -0.18 | inactive: -0.069 | inactive: -0.107 | inactive: -0.061 |  |  |  |  |  |  | 
RHBDD1 (UniProt Q8TEB9) | inactive: -0.16 | inactive: 0.025 | inactive: -0.014 | inactive: -0.377 | inactive: 0.038 | inactive: 0.019 | inactive: 0.054 | inactive: 0.009 | inactive: 0.078 | inactive: -0.153 | inactive: 0.118 | inactive: 0.016 | inactive: 0.102 | inactive: -0.008 | inactive: 0.028 | inactive: -0.06 | inactive: 0.115 | inactive: -0.04 | inactive: 0.036 | 
RNF185 (UniProt Q96GF1) | inactive: 0.189 | inactive: -0.037 | inactive: -0.027 | inactive: -0.001 |  | inactive: -0.022 | inactive: 0.218 | inactive: 0.045 | inactive: -0.139 | inactive: -0.28 | inactive: -0.135 |  | inactive: 0.072 | inactive: 0.089 | inactive: 0.057 |  | inactive: -0.072 |  | inactive: 0.001 | inactive: -0.022
RNF170 (UniProt Q96K19) | inactive: 0.069 | inactive: 0.004 | inactive: 0.083 | inactive: 0.091 | inactive: 0.248 | inactive: -0.11 | inactive: 0.029 | inactive: 0.572 | inactive: -0.168 | inactive: 0.06 | inactive: 0.051 | inactive: 0.03 | inactive: -0.09 | inactive: 0.081 | inactive: -0.282 |  | inactive: -0.045 |  | inactive: -0.007 | inactive: -0.038
RFX5 (UniProt P48382) | inactive: -0.083 | inactive: 0.034 | inactive: 0.205 | inactive: -0.174 |  | inactive: -0.193 | inactive: -0.095 | inactive: 0.017 |  | inactive: -0.057 |  | inactive: 0.073 |  |  |  | inactive: -0.074 |  | inactive: 0.013 |  | inactive: -0.324
RNF20 (UniProt Q5VTR2) | inactive: 0.171 | inactive: -0.214 | inactive: -0.158 | inactive: -0.03 | inactive: 0.029 | inactive: -0.017 | inactive: 0.108 | inactive: -0.011 |  | inactive: -0.039 | inactive: 0.208 | inactive: 0.076 | inactive: 0.133 | inactive: 0.066 | inactive: 0.128 | inactive: -0.071 | inactive: 0.231 | inactive: 0.146 | inactive: -0.045 | inactive: -0.014
RELA (UniProt Q04206) | inactive: -0.04 | inactive: 0.006 | inactive: -0.023 | active: -0.295 |  | inactive: -0.031 | inactive: -0.047 | inactive: -0.04 | inactive: -0.016 | inactive: 0.036 | inactive: 0.079 | inactive: -0.017 | inactive: -0.002 | inactive: 0.04 | inactive: 0.044 | inactive: -0.009 | inactive: -0.121 | inactive: 0.019 | inactive: -0.029 | inactive: -0.06
RBMY1E (UniProt A6NEQ0) | inactive: -0.041 | inactive: 0.219 | inactive: 0.009 | inactive: -0.038 |  | inactive: 0.026 | inactive: -0.164 | inactive: -0.016 |  | inactive: 0.07 | inactive: 0.063 |  | inactive: -0.081 | inactive: 0.29 | inactive: 0.192 |  | inactive: -0.246 |  | inactive: -0.156 | 
RIC1 (UniProt Q4ADV7) | inactive: -0.423 | inactive: 0.219 | inactive: 0.17 | inactive: 0.025 | inactive: -0.051 | inactive: -0.02 | inactive: -0.155 | inactive: -0.027 | inactive: -0.074 | inactive: -0.176 | inactive: 0.135 | inactive: 0.388 | inactive: -0.024 |  | inactive: 0.061 | inactive: -0.069 | inactive: -0.011 | inactive: 0.123 | inactive: -0.003 | inactive: -0.084
RNF2 (UniProt Q99496) | inactive: -0.102 | inactive: 0.022 | inactive: 0.065 | inactive: -0.214 | inactive: -0.106 | inactive: 0.061 |  | inactive: -0.026 | inactive: -0.051 | inactive: -0.048 | inactive: 0.054 | inactive: -0.014 | inactive: -0.102 | inactive: -0.005 | inactive: -0.031 | inactive: -0.04 | inactive: -0.003 | inactive: 0.102 | inactive: 0.003 | inactive: -0.023
RBP4 (UniProt P02753) | inactive: 0.213 | inactive: 0.026 |  |  | inactive: 0.33 |  | inactive: -0.115 |  | inactive: 0.256 | inactive: 0.358 | inactive: -0.15 |  | inactive: 0.265 | inactive: 0.24 | inactive: -0.069 |  | inactive: 0.267 |  | inactive: -0.224 | inactive: 0.014
REPS1 (UniProt Q96D71) | inactive: 0.059 | inactive: -0.066 | inactive: 0.096 | inactive: -0.055 | inactive: -0.019 | inactive: -0.014 | inactive: -0.076 | inactive: 0.099 | inactive: -0.005 | inactive: 0.062 | inactive: 0.004 | inactive: 0.123 | inactive: -0.192 | inactive: -0.197 |  | inactive: -0.003 |  | inactive: 0.004 |  | inactive: 0.141
RING1 (UniProt Q06587) | inactive: 0.004 | inactive: 0.093 | inactive: -0.062 | inactive: -0.097 |  | inactive: -0.014 | inactive: 0.013 | inactive: 0.016 | inactive: -0.037 | inactive: 0.067 | inactive: 0.115 | inactive: 0.027 | inactive: -0.039 | inactive: 0.186 | inactive: 0.001 | inactive: 0.001 | inactive: -0.125 | inactive: -0.009 | inactive: 0.021 | inactive: -0.247
RNASE4 (UniProt P34096) | inactive: -0.075 | inactive: -0.268 | inactive: -0.086 | inactive: 0.037 |  | inactive: -0.014 | inactive: -0.017 | inactive: -0.069 | inactive: 0.074 | inactive: 0.27 | inactive: -0.031 | inactive: 0.334 | inactive: 0.052 | inactive: 0.094 | inactive: 0.044 | inactive: 0.004 | inactive: 0.144 | inactive: 0.105 | inactive: 0.091 | inactive: -0.017
RFFL (UniProt Q8WZ73) | inactive: 0.079 |  | inactive: -0.053 | inactive: -0.106 | inactive: -0.058 | inactive: -0.12 | inactive: -0.004 | inactive: -0.064 | inactive: 0.215 |  | inactive: -0.005 | inactive: -0.072 | inactive: -0.354 | inactive: -0.047 | inactive: -0.119 | inactive: -0.264 | inactive: 0.137 | inactive: -0.257 | inactive: 0.092 | inactive: -0.049
RERE (UniProt Q9P2R6) | inactive: 0 |  | inactive: 0.018 | inactive: -0.077 |  | inactive: 0 | inactive: 0.017 |  |  |  |  | inactive: -0.018 |  |  | inactive: -0.05 | inactive: 0.001 | inactive: -0.161 | inactive: 0.107 | inactive: 0.089 | 
RCC1L (UniProt Q96I51) | inactive: -0.028 | inactive: -0.003 | inactive: -0.002 | inactive: 0.003 | inactive: 0.031 | inactive: 0.01 | inactive: -0.005 | inactive: -0.026 | inactive: 0.002 | inactive: -0.035 | inactive: 0.071 | inactive: -0.011 | inactive: 0.003 | inactive: 0.029 | inactive: -0.01 | inactive: 0.037 | inactive: -0.063 | inactive: -0.038 | inactive: -0.007 | inactive: -0.021
RBSN (UniProt Q9H1K0) | inactive: -0.111 | inactive: 0.077 | inactive: -0.026 | inactive: -0.023 | inactive: -0.169 | inactive: -0.073 | inactive: 0.054 | inactive: -0.059 | inactive: -0.033 | inactive: 0.117 | inactive: -0.006 |  | inactive: -0.068 |  |  | inactive: 0.255 |  | inactive: -0.014 |  | inactive: -0.335
RCOR3 isoform 3 (UniProt Q9P2K3) | inactive: 0.023 | inactive: 0.039 | inactive: -0.019 | inactive: 0.001 | inactive: -0.09 | inactive: -0.022 | inactive: 0.006 | inactive: -0.119 | inactive: -0.177 | inactive: 0.127 | inactive: 0.115 |  | inactive: -0.075 | inactive: -0.056 | inactive: 0.09 | inactive: 0.019 | inactive: -0.129 | inactive: 0.1 | inactive: -0.043 | inactive: -0.067

In a second layout: entries from further up
Target	log2 fold change (bafetinib)	log2 fold change [1]	log2 fold change (nilotinib)	log2 fold change [2]	log2 fold change (dasatinib)	log2 fold change [3]	log2 fold change [4]	log2 fold change (tipifarnib)	log2 fold change [5]	log2 fold change (vorinostat)	log2 fold change (citarinostat)	log2 fold change [6]	log2 fold change [7]	log2 fold change [8]	log2 fold change (mubritinib)	log2 fold change [9]	log2 fold change [10]	log2 fold change (entinostat)	log2 fold change (silmitasertib)	log2 fold change [11]
RFFL (UniProt Q8WZ73)	inactive: 0.079		inactive: -0.053	inactive: -0.106	inactive: -0.058	inactive: -0.12	inactive: -0.004	inactive: -0.064	inactive: 0.215		inactive: -0.005	inactive: -0.072	inactive: -0.354	inactive: -0.047	inactive: -0.119	inactive: -0.264	inactive: 0.137	inactive: -0.257	inactive: 0.092	inactive: -0.049
RERE (UniProt Q9P2R6)	inactive: 0		inactive: 0.018	inactive: -0.077		inactive: 0	inactive: 0.017					inactive: -0.018			inactive: -0.05	inactive: 0.001	inactive: -0.161	inactive: 0.107	inactive: 0.089	
